In PMC10247366 one finds binding data, which are given here for five substances.

Amino acid sequences for entries named in this document (tags omitted).
UniProt Q9H6L5: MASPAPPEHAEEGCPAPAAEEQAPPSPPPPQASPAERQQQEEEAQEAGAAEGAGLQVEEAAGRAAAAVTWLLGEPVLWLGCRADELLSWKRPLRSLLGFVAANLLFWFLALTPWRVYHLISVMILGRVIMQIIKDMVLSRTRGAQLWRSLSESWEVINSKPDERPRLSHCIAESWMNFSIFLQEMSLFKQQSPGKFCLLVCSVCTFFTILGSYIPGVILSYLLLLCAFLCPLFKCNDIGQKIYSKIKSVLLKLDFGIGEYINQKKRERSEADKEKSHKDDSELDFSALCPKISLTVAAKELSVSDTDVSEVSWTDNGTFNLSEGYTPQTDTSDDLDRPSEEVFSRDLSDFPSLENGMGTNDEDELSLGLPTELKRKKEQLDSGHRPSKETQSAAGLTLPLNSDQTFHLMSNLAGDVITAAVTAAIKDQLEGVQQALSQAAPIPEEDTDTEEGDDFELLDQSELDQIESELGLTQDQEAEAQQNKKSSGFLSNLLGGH
UniProt Q15041: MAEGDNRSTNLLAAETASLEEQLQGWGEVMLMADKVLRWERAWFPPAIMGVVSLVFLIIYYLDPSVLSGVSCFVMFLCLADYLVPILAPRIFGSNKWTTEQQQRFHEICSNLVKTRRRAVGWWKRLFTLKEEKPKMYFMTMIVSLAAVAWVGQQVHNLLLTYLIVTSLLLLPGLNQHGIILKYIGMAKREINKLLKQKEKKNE
UniProt Q96CV9: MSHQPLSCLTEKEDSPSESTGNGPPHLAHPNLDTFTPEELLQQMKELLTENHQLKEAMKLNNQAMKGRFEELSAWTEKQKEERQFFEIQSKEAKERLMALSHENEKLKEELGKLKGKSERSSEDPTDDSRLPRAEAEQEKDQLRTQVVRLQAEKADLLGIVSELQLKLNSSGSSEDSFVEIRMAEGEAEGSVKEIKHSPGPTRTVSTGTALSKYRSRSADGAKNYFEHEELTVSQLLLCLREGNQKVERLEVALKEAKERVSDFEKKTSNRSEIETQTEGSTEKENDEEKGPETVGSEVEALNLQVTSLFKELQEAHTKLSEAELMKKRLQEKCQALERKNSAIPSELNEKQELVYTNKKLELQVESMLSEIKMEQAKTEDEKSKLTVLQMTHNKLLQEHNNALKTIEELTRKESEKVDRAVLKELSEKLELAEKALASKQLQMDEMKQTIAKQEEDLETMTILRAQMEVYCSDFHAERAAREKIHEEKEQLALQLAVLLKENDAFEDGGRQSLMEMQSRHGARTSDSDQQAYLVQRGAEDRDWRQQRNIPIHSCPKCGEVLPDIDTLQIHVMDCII
UniProt Q86VR2: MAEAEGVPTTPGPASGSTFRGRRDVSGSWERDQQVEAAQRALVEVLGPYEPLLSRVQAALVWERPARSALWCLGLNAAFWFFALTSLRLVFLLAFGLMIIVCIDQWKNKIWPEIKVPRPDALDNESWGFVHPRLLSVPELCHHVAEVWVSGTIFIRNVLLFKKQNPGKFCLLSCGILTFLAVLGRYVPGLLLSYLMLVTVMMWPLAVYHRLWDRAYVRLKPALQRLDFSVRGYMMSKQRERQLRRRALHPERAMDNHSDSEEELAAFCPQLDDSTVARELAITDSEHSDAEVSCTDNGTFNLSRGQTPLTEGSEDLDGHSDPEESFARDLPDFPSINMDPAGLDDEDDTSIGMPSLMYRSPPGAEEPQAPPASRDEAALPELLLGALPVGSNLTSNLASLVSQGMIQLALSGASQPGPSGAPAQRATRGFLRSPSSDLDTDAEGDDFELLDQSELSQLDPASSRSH

Results are given in words; binding and its absence hold for the method and conditions named. In cells and extracts the contact can be indirect. A yes stands for co-enrichment or nearness to the bait. Other partners may have been found. For part of these data: A no says only that the protein was not detected with the bait.

One assay has as its target V1–FAM134B and V2–FAM134B (WT) (UniProt Q9H6L5). In words: affinity purification with mass spectrometry; BiCAP: HEK 293T co-transfected with V1- and V2-tagged proteins for 16 h, lysis with 1% Triton X-100 (50 mM Tris-HCl pH 7.5, 150 mM NaCl, 0.5 mM EDTA), refolded Venus captured on GFP-trap beads overnight at 4 °C, on-bead trypsin digestion, label-free LC–MS; hits log2 enrichment >= 2, P <= 0.05.
As to ARL6IP1 (from UniProt Q15041 1-203), the binding result is recorded as “binds”.

Turning to OPTN (from UniProt Q96CV9 1-577), the binding entry is given as “no binding”. The same measure, in the same setting: for “V1–FAM134B and V2–FAM134B (WT) (from UniProt Q9H6L5 1-497)” the value was “binds”; for “V1–FAM134C WT and V2–FAM134C WT (from UniProt Q86VR2 1-466)”, “binds”; for p62 (from UniProt Q13501 1-440), “no binding”.

A further assay addresses V1–FAM134C WT and V2–FAM134C WT (UniProt Q86VR2). Described as above.
Turning to “V1–FAM134C WT and V2–FAM134C WT (from UniProt Q86VR2 1-466)”, the binding result is “binds”.
